Screen size: about 410,000 compounds; about 18,000 (4.4%) were called active. Inconclusive results, whose numbers are uncertain, are shown with a selection of clear calls. Rule as the data show it: active = activity change below about -60%; inconclusive = no clear call, values can overlap the other calls; inactive = above about -39%.
Experiment: qHTS Assay for inhibitors of the human cytomegalovirus (HCMV)
Conditions: HFF cells, HCMV-luciferase reporter, 72 h; at 57.5 µM; active compounds read low
In short: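 Inhibition of viral replication was scored as loss of reporter luminescence in HFFs infected with HCMV-luciferase (MOI 1 PFU/cell) for 72 h; compounds tested at 2 doses, normalized to buffer and Salinomycin controls.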
% is scaled to controls: 0 for no effect and ±100 for the full control effect.

Compound	activity change, negative = inhibition
CC(=O)c1cccc(-c2cnc3ccc(-c4cccc(CO)c4)nn23)c1	active: -95.2%
O=C(c1ccc(Cl)cc1)N1CCc2c([nH]c3ccccc23)C1C(F)(F)F (centres undefined)	inconclusive: -42.1%
CCS(=O)(=O)c1nc(S(=O)(=O)c2ccc(C)cc2)c(N2CCC(C)CC2)s1	inconclusive: -49.1%
CCN1C(=O)/C(=C2/Sc3ccccc3N2CC)S/C1=N\c1ncn[nH]1	inconclusive: -50.9%
CCOC(=O)C1(Cc2ccc(Cl)cc2)CCN(C(=O)c2sc(C)nc2C)CC1	active: -76.4%
CCC(C(=O)NCCc1ccc(C)cc1)n1nc(C)c2c(C)n(-c3ccccc3)nc2c1=O (centres undefined)	inconclusive: -51.6%
CCc1ccc(C(=O)N2CCN(c3ccc(F)cc3)CC2)s1	inconclusive: -40.5%
CCCc1nn2c(=O)cc(CSCC(=O)Nc3nnc(CC)s3)nc2s1	inactive: -16%
CCOCCCn1c(SCC(=O)Nc2ccc(OC)cc2OC)nc2ccccc2c1=O	inconclusive: -56.9%
CC(C)OP(=O)(OC(C)C)C(NC(=O)c1ccccc1)C(N)=O (centres undefined)	inconclusive: -56.6%
O=C(O)c1sccc1OCc1ccccc1	inconclusive: -53.8%
CCCCc1nc2cc(C(=O)N3CCCC(COC)C3)ccc2o1 (centres undefined)	inactive: 59.3%
CCCn1cc(S(=O)(=O)c2ccccc2)c(=O)c2cc(CC)ccc21	inconclusive: -46.3%
COc1cc(-c2nnc(SCCOc3ccc(C)c(Cl)c3)o2)cc(OC)c1OC	inactive: -7.47%
CCCCN(CCCC)CCNC(=O)CSCc1ccc(C)cc1	inconclusive: -41.2%
COc1ccc(OC)c([C@@H](O)[C@H](C)NC(C)(C)C)c1	inactive: 1.89%
CCOC(=O)Cn1c(=O)oc2cc(S(=O)(=O)Nc3ccc(N(CC)CC)cc3C)ccc21	active: -76.6%
COC(=O)C1CCN(C(=O)CN(C)Cc2ccc(C(C)(C)C)cc2)CC1	inconclusive: -40.8%
CCCOc1cc(C)c(S(=O)(=O)NCc2cccs2)cc1C	inconclusive: -49.4%
Cc1cc(C)c2cc(CN(Cc3ccco3)C(=O)NCc3ccccc3)c(=O)[nH]c2c1	inactive: -28.9%
O=C(CCn1cnc2ccccc2c1=O)Nc1ccc(Cl)c(Cl)c1	active: -74.5%
C=CCCC1CN(CCCC)S(=O)(=O)c2c(F)cccc2O1 (centres undefined)	inconclusive: -42.5%
C[C@H](NC(=O)[C@@H]1Cc2ccccc2CN1)C(=O)NC[C@H]1CC[C@H](C(=O)O)CC1	inconclusive: -51.5%
COc1ccc(-c2noc(CCC(=O)NCCCN3CCN(c4ccc(F)cc4)CC3)n2)cc1	active: -63.8%
O=C(NC1CC1)c1ccc2c(c1)N(Cc1ccc(Cl)cc1)CCS2	inconclusive: -44.2%
O=c1onc(-c2c(F)cccc2F)n1-c1ccccc1Cl	inconclusive: -42.3%
COc1ccc(C2=NN(C(=O)CSc3nc(=O)n4cc(C)ccc4n3)C(c3ccc(C)cc3)C2)cc1 (centres undefined)	inconclusive: -55.4%

Among those listed so far, 2 have a tert-butyl group.
Compound	activity change, negative = inhibition
COc1ccc(OC)c([C@@H](O)[C@H](C)NC(C)(C)C)c1	inactive: 1.89%
COC(=O)C1CCN(C(=O)CN(C)Cc2ccc(C(C)(C)C)cc2)CC1	inconclusive: -40.8%

Additional compounds.

Compound	activity change, negative = inhibition
CC(CCc1ccccc1)OS(N)(=O)=O (centres undefined)	inactive: -23.3%
CCOC(=O)C1(Cc2ccccc2C)CCCN(Cc2cn(C)nc2C)C1 (centres undefined)	inconclusive: -43.6%
CC(C)c1ccc(Oc2cccc3c2S(=O)(=O)N(C2CCCC2)CC(COCc2ccccc2)O3)cc1 (centres undefined)	inactive: -30.5%
O=C(NCCc1nc2ccccc2[nH]1)Nc1ccccc1	inactive: 5.99%
CC1CCCCN1S(=O)(=O)c1ccc(N(C(=O)c2cnccn2)C(C(=O)NC2CCCC2)c2cccs2)cc1 (centres undefined)	inconclusive: -42%
Cc1ccc(S(=O)(=O)N(CC(=O)NCC2CCCO2)Cc2cccc(C)c2)cc1 (centres undefined)	inactive: -26.1%
CSc1ccc(C2Nc3ccccc3-c3cc(C)nn32)cc1 (centres undefined)	inactive: -5.24%
CCOC(=O)[C@@H](C)N1[C@@H](C)[C@H](c2ccccc2)Oc2ccc(Cl)cc2S1(=O)=O	inactive: -12.3%
CC(C)(C)c1ccc(-c2nnc(SCC(=O)Nc3sc4c(c3C#N)CCCC4)o2)cc1	active: -102%
O=C(CSCc1ccco1)NC1CCCC1	inactive: -33.1%
O=C(O)/C=C/C(=O)N(Cc1ccc2c(c1)OCO2)C1CC(=O)N(CCc2ccccc2)C1=O (centres undefined)	inconclusive: -42.5%
CCCC(=O)N1CCC1(C)C(=O)NS(=O)(=O)c1ccc(OC)cc1 (centres undefined)	inactive: 7.48%
CCOc1ccc(S(=O)(=O)N2CCN(C)CC2)c(C)c1C	inconclusive: -42.5%
COCCOC(=O)C1=C(C)N(c2ccccc2)C(=S)NC1c1ccccc1C(F)(F)F (centres undefined)	inconclusive: -55.8%
COC(=O)c1cc2occc2n1Cc1nc(-c2ccc(C)cc2)oc1C	inconclusive: -51.4%
COc1ccc(CCC(=O)OCC(=O)c2cccc(OC)c2)cc1	inconclusive: -46.5%
C=CCn1c(O)c(C=Nc2c(C)n(C)n(-c3ccccc3)c2=O)c(=O)[nH]c1=O	inactive: 34.1%
CC(=O)c1ccccc1NC(=O)COc1ccc(N(C)S(=O)(=O)c2ccc(C)c(C)c2)cc1	inactive: 20.6%
C[C@]12c3[nH]c4ccccc4c3CCN1C(=O)C(CC(=O)NCC13CC4CC(CC(C4)C1)C3)C[C@@H]2C(=O)N1CCOCC1 (some centres undefined)	inactive: -37.9%
COc1ccc(-c2noc(N3CCC(C(=O)NCCCN4CCCCC4)CC3)n2)cc1	inactive: -8.77%
Cc1cccc(-c2nc(Cn3c(SCc4cccc(C(F)(F)F)c4)nc4ccncc43)c(C)o2)c1	inactive: -9.47%
CC(Nc1nc(C(F)(F)F)nc2ccccc12)c1cccs1 (centres undefined)	inconclusive: -58.1%
CCOc1cccc(C(=O)Nc2cccc(-c3nnc(-c4ccccc4)o3)c2)c1	inconclusive: -54.4%
Cc1nc2cc(-c3ccccc3)nn2c(C)c1CCC(=O)N1CCN(c2ccccc2)CC1	inconclusive: -43.8%
CN(Cc1nc(Cc2ccccc2F)no1)Cc1cccc2ncccc12	active: -84.7%
CCOc1ccc(N(CC(=O)NCCc2ccccc2)C(=O)CCC(=O)Nc2nccs2)cc1	inconclusive: -51.1%
Cc1cccc(C)c1NC(=O)CN(C)C(=O)C1CCN(c2ncnc3sc(C)c(C)c23)CC1	inconclusive: -45.6%

— PubChem BioAssay AID1259415 (National Center for Advancing Translational Sciences (NCATS), 2018)
